Results on 37 molecules are retold here after PubChem BioAssay AID2685 (National Center for Advancing Translational Sciences (NCATS), 2010).

This test in a line: qHTS Assay for Lipid Storage Modulators in Drosophila S3 Cells.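 As to cell number change: cells counted by Cell Tracker Red CMTPX staining in the red channel.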 As to conditions: BODIPY lipid droplet fluorescence, 18-24 h; for cell number change: measured here: cell count max response, cells fed with added oleic acid. Put shortly:
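Drosophila S3 cells loaded with oleic acid (400 uM, as added) and compounds at several concentrations; lipid droplets imaged by 488-nm laser-scanning cytometry, 500–530 nm intensity and object ratio to cell channel. Percent activity normalized to 20 uM Triacsin C.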

[1] abbreviates: measured here: lipid fluorescence (Fed channel) AC50, cells fed with added oleic acid.
[2] abbreviates: measured here: cell number channel AC50, cells fed with added oleic acid.

This is one part of the list. Further columns of the screen follow, without active or inactive calls. The list favours compounds with an active or inconclusive main result. Words in brackets tell the shape of the fitted curve; partial curves, single points and poor fits give uncertain potencies.

As a reminder, the AC50 is the concentration at which the activity in the assay is half-maximal. A low value points to greater potency. Regarding `O=C(Nc1ccccc1O)c1ccccc1O`, the cell number change was -18.6%. For the same molecule, under setting [1], the AC50 was 0.731 µM [rising, full curve, poor fit].

`CCC(C)NC(=O)c1ccccc1C(=O)NC(C)CC` (configuration not stated): the cell number change is -36.9%. Besides, the AC50 under setting [2] is 20.6 µM [falling, partial curve, poor fit]. The AC50 under setting [1] is 29.1 µM [falling, single point].

As for `N#CCCN(C(=O)COc1ccc(Br)cc1F)c1ccc(F)cc1`, the cell number change amounted to 19.4%.

Regarding `NC(=O)c1ccc(-c2nnn(CC(=O)Nc3cccc(S(=O)(=O)N4CCCC4)c3)n2)cc1`, the cell number change is -6.55%. Also, the half-maximal activity concentration (AC50) under setting [1] was 29.1 µM [falling, single point].

For `COc1cccc(C2(O)CCN(C(=O)c3cccs3)CC2)c1`, the cell number change was -16.4%. Further, the AC50 under setting [1] is 2.59 µM [rising, single point].

For `C=CCOC(=O)COc1ccc2c(C)c(CC)c(=O)oc2c1`, the cell number change was -51.2%. Also, under setting [2], the concentration at half-maximal activity (AC50) was 3.66 µM [falling, full curve]. In addition, under setting [1], the AC50 was 3.66 µM [falling, full curve].

`CCN(CC)c1ccc(S(=O)(=O)N2CCOCC2)cc1NC(=O)CSc1nnc(N)s1`: the cell number change is -95.9%. Also, under setting [2], the AC50 is 0.00517 µM [falling, full curve, poor fit]. Also, under setting [1], the AC50 was 0.00517 µM [falling, full curve, poor fit].

As for `CCCCN=CC1=C(O)C(C(=O)OC)C(C)(C)CC1=O` (configuration not stated), the cell number change was -204%. Under setting [2], the AC50 is 23.1 µM [falling, partial curve]. Moreover, the concentration at half-maximal activity (AC50) under setting [1] is 6.51 µM [falling, single point].

Take `O=C(NC1CCCCC1)NC1CC2CCC(C1)N2C(=O)NCc1ccccc1` (configuration not stated): the cell number change is -84.4%. Further, the AC50 under setting [2] was 23.1 µM [falling, single point]. Also, under setting [1], the AC50 is 23.1 µM [falling, single point].

In the case of `CC(=O)Nc1ccc2c(c1)nc(CCN1CCOCC1)n2C`, the cell number change is -43.7%. Besides, the AC50 under setting [2] is 2.31 µM [falling, full curve].

Regarding `C[C@]1(CC/C(=C/CO)CO)[C@H](CO)CC[C@@]23COC(=O)C2=CCC[C@@H]31`, the cell number change amounted to 20.5%. For the same molecule, the AC50 under setting [1] is 23.1 µM [rising, single point].

With `Cc1c(C(=O)OCC(=O)N(C)c2ccccc2)cccc1[N+](=O)[O-]`, under setting [1], the AC50 is 6.51 µM [rising, single point].

Turning to `COc1c(C)cc(C(=O)C2CCCN(C(=O)c3ccc4cc[nH]c4c3)C2)cc1C` (configuration not stated), the cell number change was -34.5%. Besides, the AC50 under setting [2] was 29.1 µM [falling, single point]. Further, under setting [1], the concentration at half-maximal activity (AC50) was 29.1 µM [falling, single point].

Turning to `Cc1ccc2[nH]c(C(=O)Nc3ccc(F)cc3)cc2c1`, the cell number change was -21.9%. Moreover, the AC50 under setting [1] was 29.1 µM [falling, single point].

For `CSc1cccc(NC(=O)C2CCCN(c3ncnc4c3nc3n4CCCCC3)C2)c1` (configuration not stated), the cell number change is -2.72%. Besides, the AC50 under setting [1] was 6.51 µM [rising, partial curve, poor fit].

On to `O=C(c1ccc(CS(=O)c2ccccc2Cl)o1)N1CCOCC1` (configuration not stated), for which the cell number change was -21.2%.

As for `CC(=O)c1cccc(NS(=O)(=O)N(C)C)c1`, the cell number change is -151%. For the same molecule, under setting [2], the half-maximal activity concentration (AC50) was 29.1 µM [falling, single point]. Moreover, under setting [1], the half-maximal activity concentration (AC50) was 29.1 µM [falling, single point].

On to `FC(F)(F)c1nnc2ccc(NCn3nnc4ccccc43)nn12`, for which the cell number change was 73.1%. Also, the AC50 under setting [2] is 3.66 µM [rising, partial curve, poor fit]. Under setting [1], the concentration at half-maximal activity (AC50) was 0.13 µM [rising, full curve, poor fit].

Turning to `O=C1c2ccccc2C(=O)N1CCc1c[nH]c2ccccc12`, the cell number change turned out to be 24.8%. Also, under setting [1], the concentration at half-maximal activity (AC50) is 0.13 µM [falling, full curve, poor fit].

For `CC(=O)c1sc(NC(=O)c2cccc3ccccc23)nc1C`, the cell number change is 34.7%. Further, the AC50 under setting [2] was 25.9 µM [rising, single point].

`O=C(CC1SC(=Nc2ccc(OC(F)F)cc2)N(CCN2CCOCC2)C1=O)Nc1ccccc1` (configuration not stated): the cell number change was -8.37%. Moreover, the half-maximal activity concentration (AC50) under setting [1] is 0.82 µM [falling, single point].

Regarding `CC(Sc1nnc2c(n1)C1CCC2(C)C1(C)C)C(=O)Nc1ccccc1` (configuration not stated), the cell number change is -84%. Further, the AC50 under setting [2] is 16.4 µM [falling, partial curve, poor fit]. The AC50 under setting [1] is 2.59 µM [falling, full curve].

For the molecule `COc1ccc(C)cc1NC(=O)c1[nH]c(C)c(C(C)=O)c1C`, the cell number change is -12.6%.

On to `CCOc1ccc(N=Cc2ccc3ccccc3c2)cc1`, for which the cell number change was found to be 19.7%.

`CC1CN(C(=S)SCCN2C(=O)CCC2=O)CC(C)O1` (configuration not stated): the cell number change came to 19.7%.

Regarding `COCc1cc(C)nc2sc(C(=O)Nc3ccc(C(=O)OC)cc3)c(N)c12`, the cell number change was -27%. For the same molecule, the AC50 under setting [1] is 29.1 µM [falling, single point].

`O=C(NC(=S)NNC(=O)c1ccco1)c1ccccc1`: the cell number change came to 0.0203%. Besides, the AC50 under setting [2] is 6.51 µM [rising, single point]. For the same molecule, under setting [1], the AC50 is 3.26 µM [rising, partial curve, poor fit].

Take `COC(=O)c1cn(CCOc2ccc(C)cc2)c2ccccc12`: the cell number change is 7.33%.

In the case of `COc1ccc(/C=C(/C#N)C(=O)Nc2ccc(O)cc2)cc1C(=O)O`, the cell number change was -15.6%. The AC50 under setting [1] is 2.59 µM [falling, full curve].

On to `Nc1ncnc2c1C1(CCCCC1)Cc1ccccc1-2`, for which the cell number change was -10%. For the same molecule, the AC50 under setting [2] was 3.66 µM [rising, single point].

As for `CCOC(=O)N1CCN(C(=O)c2ccc(CN(c3ccc(C)c(C)c3)S(C)(=O)=O)cc2)CC1`, the cell number change worked out at 9.02%. Also, under setting [1], the AC50 was 11.6 µM [falling, partial curve].

`CC(C)NC(=O)C1(S(=O)(=O)c2ccccc2)CC=CC1`: the cell number change came to 2.99%. Besides, the AC50 under setting [1] is 3.66 µM [rising, full curve].

As for `COc1ccc(/C=C/C(=O)NCCN=C2NS(=O)(=O)c3ccccc32)cc1`, the cell number change was -44.7%. The AC50 under setting [2] is 6.51 µM [falling, single point]. Moreover, the AC50 under setting [1] is 6.51 µM [falling, single point].

In the case of `O=C(COC(=O)CCc1nc2ccccc2s1)NCc1ccco1`, the cell number change was 39.5%. Besides, the AC50 under setting [2] is 0.00461 µM [falling, full curve, poor fit].

As to `Cc1ccc(NC(=O)COC(=O)[C@H](C)NC(=O)c2ccccc2)cc1S(=O)(=O)N1CCOCC1`, the cell number change was -16.8%. Also, the half-maximal activity concentration (AC50) under setting [1] was 18.4 µM [falling, single point].

As to `O=C(C1CCCN(S(=O)(=O)c2cccc3cccnc23)C1)N1CCN(c2ccc(F)cc2)CC1` (configuration not stated), the AC50 under setting [1] was 0.116 µM [rising, full curve, poor fit].

In the case of `CCOCCn1c(C(C)O)nc2ccccc21` (configuration not stated), the cell number change was -19.5%. The half-maximal activity concentration (AC50) under setting [1] is 29.1 µM [falling, partial curve, poor fit].
